Reference: the supplement of paper PMC9233669
Variants at the floor of the assay are shown more often than the library holds them.

Key:
biotinyl-Trp-oxazolone = experiment: self-aminoacylation, catalytic enhancement (BWO) (fold over background); higher = more active; k-Seq, kA / k0A0; sequences stand for … in GGGAAUGGAUCCACAUCUACGAAUUC…UUCACUGCAGACUUGACGAAGCUG
Procedure, shortened: (§1)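 Working in 50 μL HEPES/NaCl/KCl/MgCl2/CaCl2 buffer with 5% acetonitrile at pH 6.9–7.0, mutagenized RNA pools (0.43 μM; 21-nt variable region) were reacted with 2–1250 μM of each biotinyl-aminoacyl-oxazolone for 90 minutes at room temperature. Streptavidin capture followed, with quantification by triplicate qPCR and Illumina sequencing. Catalytic enhancement is reported as median kA over the uncatalyzed rate, the low-activity peak of a bimodal Gaussian fit to the data.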

biotinyl-Leu-oxazolone = experiment: self-aminoacylation, catalytic enhancement (BLO) (fold over background); higher = more active; k-Seq, kA / k0A0; sequences stand for … in GGGAAUGGAUCCACAUCUACGAAUUC…UUCACUGCAGACUUGACGAAGCUG
Procedure, shortened: as §1

biotinyl-Val-oxazolone = experiment: self-aminoacylation, catalytic enhancement (BVO) (fold over background); higher = more active; k-Seq, kA / k0A0; sequences stand for … in GGGAAUGGAUCCACAUCUACGAAUUC…UUCACUGCAGACUUGACGAAGCUG
Procedure, shortened: as §1

biotinyl-Ile-oxazolone = experiment: self-aminoacylation, catalytic enhancement (BIO) (fold over background); higher = more active; k-Seq, kA / k0A0; sequences stand for … in GGGAAUGGAUCCACAUCUACGAAUUC…UUCACUGCAGACUUGACGAAGCUG
Procedure, shortened: as §1

biotinyl-Met-oxazolone = experiment: self-aminoacylation, catalytic enhancement (BMO) (fold over background); higher = more active; k-Seq, kA / k0A0; sequences stand for … in GGGAAUGGAUCCACAUCUACGAAUUC…UUCACUGCAGACUUGACGAAGCUG
Procedure, shortened: as §1

biotinyl-Phe-oxazolone = experiment: self-aminoacylation, catalytic enhancement (BFO) (fold over background); higher = more active; k-Seq, kA / k0A0; sequences stand for … in GGGAAUGGAUCCACAUCUACGAAUUC…UUCACUGCAGACUUGACGAAGCUG
Procedure, shortened: as §1

Sequence | self-aminoacylation (biotinyl-Trp-oxazolone) | self-aminoacylation (biotinyl-Leu-oxazolone) | self-aminoacylation (biotinyl-Val-oxazolone) | self-aminoacylation (biotinyl-Ile-oxazolone) | self-aminoacylation (biotinyl-Met-oxazolone) | self-aminoacylation (biotinyl-Phe-oxazolone)
AUUCACCUAGAUCAUCGGGAG [Fam2.2 aminoacylation ribozyme variant] | 1.33 | 1.13 | 1.11 | 1.09 | 0.94 | 0.606
AUUCACCUAGGACAUCAGGUG [Fam2.2 aminoacylation ribozyme variant] | 1.12 | 1.22 | 1.19 | 1.19 | 1.22 | 0.743
AUUCACCUAGGACGUCGGGUG [Fam2.2 aminoacylation ribozyme variant] | 1.42 | 1.91 | 1.88 | 1.66 | 1.91 | 9.18
AUUCACCUAGGCCAUCGAGUG [Fam2.2 aminoacylation ribozyme variant] | 1.19 | 1.61 | 1.09 | 1.09 | 1.24 | 0.872
AUUCACCUAGGCCAUCGCGUG [Fam2.2 aminoacylation ribozyme variant] | 3.85 | 6.31 | 4.15 | 4.69 | 4.45 | 31.6
AUUCACCUAGGUAAUCGGGGG [Fam2.2 aminoacylation ribozyme variant] | 1.06 | 1.82 | 1.5 | 1.72 | 1.55 | 0.704
AUUCACCUAGGUAAUCGGGUU [Fam2.2 aminoacylation ribozyme variant] | 0.977 | 1.17 | 1.16 | 0.997 | 1.09 | 0.331
AUUCACCUAGGUAAUCUGGUG [Fam2.2 aminoacylation ribozyme variant] | 3.62 | 4.66 | 1.88 | 1.89 | 3.3 | 16.9
AUUCACCUAGGUCAUAGGAUG [Fam2.2 aminoacylation ribozyme variant] | 0.235 | 0.405 | 0.633 | 0.481 | 0.507 | 0.656
AUUCACCUAGGUCAUCGAGUC [Fam2.2 aminoacylation ribozyme variant] | 0.52 | 0.629 | 0.615 | 0.5 | 0.501 | 0.714
AUUCACCUAGGUCAUCUGAUG [Fam2.2 aminoacylation ribozyme variant] | 0.419 | 0.751 | 0.669 | 0.695 | 0.695 | 0.489
AUUCACCUAGGUCAUGGUGUG [Fam2.2 aminoacylation ribozyme variant] | 0.519 | 0.994 | 0.932 | 0.936 | 0.846 | 0.397
AUUCACCUAGGUCUUCGGAUG [Fam2.2 aminoacylation ribozyme variant] | 1.38 | 1.33 | 1.15 | 1.03 | 1.05 | 1.58
AUUCACCUAGGUGAUCGGGAG [Fam2.2 aminoacylation ribozyme variant] | 1.58 | 1.08 | 1.36 | 1.38 | 1.22 | 0.405
AUUCACCUAGGUUAUCGGGCG [Fam2.2 aminoacylation ribozyme variant] | 1.67 | 1.79 | 1.49 | 1.77 | 1.62 | 1.4
AUUCACCUAGUGCAUCGGGUG [Fam2.2 aminoacylation ribozyme variant] | 1.17 | 2.12 | 1.63 | 1.35 | 1.62 | 5.22
AUUCACCUGGGUCAUCGGGUU [Fam2.2 aminoacylation ribozyme variant] | 7.09 | 9.06 | 5.13 | 4.39 | 6.89 | 17.4
AUUCACGUAGGUCAUCGGGCG [Fam2.2 aminoacylation ribozyme variant] | 1.21 | 2.57 | 2.56 | 2.07 | 2.41 | 5.97
AUUCAUCUAGGCCAUCGGGUG [Fam2.2 aminoacylation ribozyme variant] | 3 | 5.22 | 2.84 | 2.39 | 3.38 | 19
AUUCCCCUGGUCAUCGAGUCA [Fam2.1 aminoacylation ribozyme variant] | 0.967 | 1.13 | 1.13 | 1.34 | 1.23 | 0.591
AUUCUCCUAGAUCAUCGGGUG [Fam2.2 aminoacylation ribozyme variant] | 4.66 | 5.3 | 2.68 | 3.28 | 4.32 | 34.7
AUUGAUCUAGGUCAUCGGGUG [Fam2.2 aminoacylation ribozyme variant] | 7.06 | 7.89 | 3.8 | 4.45 | 6.53 | 35.2
